The numbers were not newly measured in paper PMC6162288, “On-chip spatiotemporal electrophysiological analysis of human stem cell derived cardiomyocytes enables quantitative assessment of proarrhythmia in drug development” (Scientific Reports, 2018), which cites them from elsewhere.

The conditions of data set [1]: unbound therapeutic plasma concentration; cited from earlier work.
The conditions of data set [2]: roughly the same for both drugs; ref Table 1; cited from earlier work.

Consider `CCN(CC)CC(=O)Nc1c(C)cccc1C` [Lidocaine, lidocaine], for which the Unbound result in data set [1] is “Lidocaine 1,804–7,732[67] hERG: n.d. Nav1.5: 42,000–108,000[68] Cav1.2: n.d. nM”. For the same compound, the plasma protein-binding rate in data set [2] is listed as 60–80%.
